# Measured values: the supplement of paper PMC5770031
# “And” between values parts separate entries of the source, which are not always exact repeats. Identical values can stand only once. This is one part of the list. Single values are uncertain here, since repeats match poorly.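 ATM8/balancer (normal ATM) heterozygous flies were crossed on treated food; parents laid eggs 5–6 days, offspring developed ~12 days, so parents and larvae ingested compound. Readout: fraction of emerged adults homozygous for ATM8 versus 2% DMSO controls. Compounds were neutral at 10–20% homozygotes, harmful below 10%, helpful above 20%.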
# System: Drosophila melanogaster ATM8 (temperature-sensitive ATM allele)
# Test: fraction of eclosed F1 progeny that are homozygous ATM8 (rescue of developmental lethality); higher = more rescue of ATM8 developmental lethality; extreme values may be limits of the assay
# Details: compound concentration applied to food 0.2 mM; 21 °C
row,Structure (SMILES),fraction of eclosed F1 progeny that are homozygous ATM8
1,O=c1oc2c(O)c(O)cc3c(=O)oc4c(O)c(O)cc1c4c23,0.304
2,COc1ccc(-c2coc3cc(OC(C)=O)cc(OC(C)=O)c3c2=O)cc1,0.033
3,NC(=O)NCCC[C@H](N)C(=O)O,0.246
4,C[C@]12CC[C@H]3[C@@H](CC[C@]4(O)C[C@@H](O)CC[C@]34C=O)[C@@]1(O)CC[C@@H]2C1=CC(=O)OC1,0.241
5,CC(=O)CC(c1ccccc1)c1c(O)c2ccccc2oc1=O (centres undefined),0.179
6,NS(=O)(=O)c1cc2c(cc1Cl)NC(C1CC3C=CC1C3)NS2(=O)=O (centres undefined),0.069
7,CCN(CC)CC(=O)Nc1c(C)cccc1C,0.178
8,c1ccc2c(CC3=NCCN3)cccc2c1,0.0938
9,COc1cc(OC)c2c(c1Cl)O[C@@]1(C(=O)CC(=O)C[C@H]1C)C2=O,0.393
10,NC(N)=NOCC[C@H](N)C(=O)O,0.0638
11,CN1C(=O)CC[C@H]1c1cccnc1,0
12,CC[C@@H]1C(=O)OC[C@@H]1Cc1cncn1C,0.133
13,CS(=O)(=O)OCCCCOS(C)(=O)=O,0.0833
14,Cc1c(NC(=O)c2cccnc2)c(=O)n(-c2ccccc2)n1C,0.171
15,O=C(/C=C/c1ccc(O)cc1)c1ccc(O)cc1O,0.0833
16,COc1ccc(-c2coc3c(O)c(O)c(OC)cc3c2=O)cc1,0.178
17,OCc1c[nH]c2ccccc12,0.151

row,Structure (SMILES),fraction of eclosed F1 progeny that are homozygous ATM8
1,CCC1(C)OC(=O)N(C)C1=O (centres undefined),0
2,O=C(OOC(=O)c1ccccc1)c1ccccc1,0.0833
3,N[C@@H](Cc1c[nH]c2ccccc12)C(=O)O,0.103 and 0.1
4,CC(O)Cn1cnc2c1c(=O)n(C)c(=O)n2C (centres undefined),0.0811
5,NS(=O)(=O)c1cc2c(cc1C(F)(F)F)NCNS2(=O)=O,0.238
6,NC(=O)CCCCC1CCSS1 (centres undefined),0.192
7,CC(C)(CO)[C@@H](O)C(=O)NCCC(=O)NCCSSCCNC(=O)CCNC(=O)[C@H](O)C(C)(C)CO,0.075
8,CC(=O)Oc1ccc(Cl)c2cccnc12,0.208
9,CN1CCN(CC/C=C2/c3ccccc3Sc3ccc(S(=O)(=O)N(C)C)cc32)CC1,0.0789
10,O=P1(NCCCl)OCCCN1CCCl (centres undefined),0
11,N#CN=C(N)N,0.196
12,CN1CCC(=C2c3ccccc3C=Cc3ccccc32)CC1,0.175
13,CCCc1cc(C(N)=S)ccn1,0.122
14,CC(=O)S[C@@H]1CC2=CC(=O)CC[C@]2(C)[C@H]2CC[C@@]3(C)[C@@H](CC[C@@]34CCC(=O)O4)[C@H]12,0.265
15,CC(Cc1cccc(C(F)(F)F)c1)NCCOC(=O)c1ccccc1 (centres undefined),0.233
16,C=C(C)[C@@H]1[C@H]2OC(=O)[C@@H]1[C@]1(O)C[C@H]3O[C@]34C(=O)O[C@H]2[C@]14C,0.216
17,CC(=O)[C@H]1CC[C@H]2[C@@H]3CCC4=CC(=O)CC[C@]4(C)[C@H]3C(OC(=O)CCC(=O)O)C[C@]12C (stereo partly drawn) [11alpha-HYDROXYPROGESTERONE HEMISUCCINATE],0.229
